Measured values from patent US20150098955A1 (VIELA BIO, published 2015).
No constants are given. Whether binding was seen depends on the method and setting. Some binding calls cover weakened binding; strength is not graded here. For part of these data: Where a sequence is shown, tags or fusion partners need not be part of it.

Chains of the proteins cited; added tags and fusions are not shown. Residues count along the entry.
UniProt P29965, residues 47-261: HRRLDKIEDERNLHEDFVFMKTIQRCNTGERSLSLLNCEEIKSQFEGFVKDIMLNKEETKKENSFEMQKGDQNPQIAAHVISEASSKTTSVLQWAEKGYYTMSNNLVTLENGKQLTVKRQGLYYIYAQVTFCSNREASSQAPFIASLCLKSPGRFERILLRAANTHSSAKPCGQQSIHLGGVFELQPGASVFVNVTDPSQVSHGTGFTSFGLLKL

Columns and labels:
[1] = target: Recombinant human CD40L (Human MegaCD40L; Axxora) (human) (UniProt P29965); assay: capture ELISA: His-tagged Tn3 captured on anti-His antibody, biotinylated Human MegaCD40L detected with SA-HRP
[2] = target: Recombinant human CD40L (Human MegaCD40L; Axxora) (human) (UniProt P29965); assay: plate binding assay: anti-His capture of Tn3, biotinylated human MegaCD40L, SA-HRP (original variant as reference)
[3] = target: Recombinant human CD40L (Human MegaCD40L; Axxora) (human) (UniProt P29965); assay: soluble protein screening assay for CD40L binding (anti-His capture, biotinylated human MegaCD40L)
[4] = target: Recombinant human CD40L (Human MegaCD40L; Axxora) (human) (UniProt P29965); assay: plate binding assay: anti-His capture of Tn3, biotinylated human MegaCD40L, SA-HRP
[5] = target: Recombinant human soluble CD40L (113-261, UNIPROT: P29965) with N-terminal 6xHis-tag (human) (UniProt P29965); assay: co-crystal structure
[6] = target: Recombinant human soluble CD40L (113-261, UNIPROT: P29965) with N-terminal 6xHis-tag (human) (UniProt P29965); assay: co-crystal structure of 342 and 311K4E-12 with CD40L

| Binder | binding [3] | further results |
| --- | --- | --- |
| Clone 309 - Parental clone isolated from naive Tn3 library (designed binder, Secreted His8-tagged form purified on Ni-NTA) AIEVKDVTDTTALITWSDEFGHYDGCELTYGIKDVPGDRTTIDLWWHSAWYSIGNLKPDTEYEVSLICYTDQEAGNPAKETFTTGGGTLGHHHHHHHH |  | binding [1]: binds; binding [2]: binds |
| Clone 349 - Affinity Mature variant (designed binder, Secreted His8-tagged form) AIEVKDVTDTTALITWSDEHAEFIGCELTYGIKDVPGDRTTIDLWWHSAWYSIGNLKPDTEYEVSLICRRGDMSSNPAKETFTTGGGTLGHHHHHHHH | binds |  |
| Clone 348 - Affinity Mature variant (designed binder, Secreted His8-tagged form) AIEVKDVTDTTALITWSDDIGLYVWCELTYGIKDVPGDRTTIDLWFHQAWYSIGNLKPDTEYEVSLICRRGDMSSNPAKETFTTGGGTLGHHHHHHHH | binds |  |
| Clone 343 - Affinity Mature variant (designed binder, Secreted His8-tagged form) AIEVKDVTDTTALITWLDDWGSYHVCELTYGIKDVPGDRTTIDLWYHQAWYSIGNLKPDTEYEVSLICRRGDMSSNPAKETFTTGGGTLGHHHHHHHH | binds |  |
| Clone 345 - Affinity Mature variant (designed binder, Secreted His8-tagged form) AIEVKDVTDTTALITWSDDFAEYVGCELTYGIKDVPGDRTTIDLWWHSAWYSIGNLKPDTEYEVSLICRRGDMSSNPAKETFTTGGGTLGHHHHHHHH | binds |  |
| Clone 344 - Affinity Mature variant (designed binder) AIEVKDVTDTTALITWSDEVGDYVVCELTYGIKDVPGDRTTIDLWYHMAWYSIGNLKPDTEYEVSLICRRGDMSSNPAKETFTTGGGTLGHHHHHHHH | binds |  |
| Clone 342 - Affinity Mature variant (w/WT FG loop) (designed binder, Secreted His8-tagged form) AIEVKDVTDTTALITWSDDFGEYVWCELTYGIKDVPGDRTTIDLWYHHAHYSIGNLKPDTEYEVSLICRRGDMSSNPAKETFTTGGGTLGHHHHHHHH | binds |  |
| Clone 347 - Affinity Mature variant (designed binder, Secreted His8-tagged form) AIEVKDVTDTTALITWSDEVGQYVGCELTYGIKDVPGDRTTIDLWYHMAWYSIGNLKPDTEYEVSLICRRGDMSSNPAKETFTTGGGTLGHHHHHHHH | binds |  |
| 311 variant with the FG loop changed to the parent Tn3 FG loop sequence (designed binder) AIEVKDVTDTTALITWTNRSSYYNLHGCELTYGIKDVPGDRTTIDLSSPYVHYSIGNLKPDTEYEVSLICRRGDMSSNPAKETFTTGGGTLGHHHHHHHH |  | binding [4]: binds; binding [1]: binds |
| 311K4E-12 monomer scaffold, tagless (for crystallization) (designed binder) IEVEDVTDTTALITWTNRSSYSNLHGCELAYGIKDVPGDRTTIDLNQPYVHYSIGNLKPDTEYEVSLICLTTDGTYNNPAKETFTT |  | binding [5]: binds; binding [6]: binds |
| Clone 311 - Parental clone isolated from naive Tn3 library (designed binder) AIEVKDVTDTTALITWTNRSSYYNLHGCELTYGIKDVPGDRTTIDLSSPYVHYSIGNLKPDTEYEVSLICLTTDGTYSNPAKETFTTGGGTLGHHHHHHHH |  | binding [1]: binds; binding [2]: binds |
| Clone 311K4E_13 - Clone Variant from second round of affinity maturation (designed binder) AIEVEDVTDTTALITWINRSSYANLHGCELTYGIKDVPGDRTTIDLNSPYVHYSIGNLKPDTEYEVSLICLTTDGTYSNPAKETFTTGGGTLGHHHHHHHH | binds |  |
| Clone 311K4E_8 - Clone Variant from second round of affinity maturation (designed binder) AIEVEDVTDTTALITWTNRSSYAYLHGCELAYGIKDVPGDRTTIDLNQPYVHYSIGNLKPDTEYEVSLICLTTDGTYSNPAKETFTTGGGTLGHHHHHHHH | binds |  |
| Clone 311K4E_16 - Clone Variant from second round of affinity maturation (designed binder) AIEVEDVTDTTALITWTNRSSYSDLPGCELTYGIKDVPGDRTTIDLSSPYVHYSIGNLKPDTEYEVSLICLTTDGTYSNPAKETFTTGGGTLGHHHHHHHH | binds |  |
| Clone 311K4E_10 - Clone Variant from second round of affinity maturation (designed binder) AIEVEDVTDTTALITWTNRSSYANYHGCELAYGIKDVPGDRTTIDLNQPYVHYSIGNLKPDTEYEVSLICLTTDGTYSNPAKETFTTGGGTLGHHHHHHHH | binds |  |
| Clone 311K4E_14 - Clone Variant from second round of affinity maturation (designed binder) AIEVEDVTDTTALITWTARSAYSHHHYCELTYGIKDVPGDRTTIDLRQPYVHYSIGNLKPDTEYEVSLICLTTDGTYSNPAKETFTTGGGTLGHHHHHHHH | binds |  |
| Clone 311K4E_19 - Clone Variant from second round of affinity maturation (designed binder) AIEVEDVTDTTALITWTHRSAYSNHSFCELTYGIKDVPGDRTTIDLNTPYVHYSIGNLKPDTEYEVSLICLTTDGTYSNPAKETFTTGGGTLGHHHHHHHH | binds |  |
| Clone 311K4E_21 - Clone Variant from second round of affinity maturation (designed binder) AIEVEDVTDTTALITWTNRSSYSNLPGCELTYGIKDVPGDRTTIDLNQVYVHYSIGNLKPDTEYEVSLICLTTDGTYSNPAKETFTTGGGTLGHHHHHHHH | binds |  |
| Clone 311K4E_5 - Clone Variant from second round of affinity maturation (designed binder) AIEVEDVTDTTALITWTNRSSYSNFHGCELAYGIKDVPGDRTTIDLNSPYVHYSIGNLKPDTEYEVSLICLTTDGTYSNPAKETFTTGGGTLGHHHHHHHH | binds |  |
| Clone 311K4E_9 - Clone Variant from second round of affinity maturation (designed binder) AIEVEDVTDTTALITWINRSSYANLHGCELTYGIKDVPGDRTTIDLSSPYVHYSIGNLKPDTEYEVSLICLTTDGTYSNPAKETFTTGGGTLGHHHHHHHH | binds |  |
| Clone 311K4E_12 - Clone Variant from second round of affinity maturation (designed binder, Secreted His8-tagged form) AIEVEDVTDTTALITWTNRSSYSNLHGCELAYGIKDVPGDRTTIDLNQPYVHYSIGNLKPDTEYEVSLICLTTDGTYNNPAKETFTTGGGTLGHHHHHHHH | binds |  |
| Clone 311K4E_15 - Clone Variant from second round of affinity maturation (designed binder, Secreted His8-tagged form) AIEVEDVTDTTALITWTNRSSYANYHHCELTYGIKDVPGDRTTIDLELYVHYSIGNLKPDTEYEVSLICLTTDGTYSNPAKETFTTGGGTLGHHHHHHHH | binds |  |
| 309 monomer scaffold, tagless (for crystallization) (designed binder) IEVKDVTDTTALITWSDEFGHYDGCELTYGIKDVPGDRTTIDLWWHSAWYSIGNLKPDTEYEVSLICYTDQEAGNPAKETFTT |  | binding [5]: binds |
| 342 monomer scaffold, tagless (for crystallization) (designed binder) IEVKDVTDTTALITWSDDFGEYVWCELTYGIKDVPGDRTTIDLWYHHAHYSIGNLKPDTEYEVSLICRRGDMSSNPAKETFTT |  | binding [5]: binds; binding [6]: binds |

More lines, main results first:

| binding [3] | Binder | further results |
| --- | --- | --- |
| binds | Clone 346 - Affinity Mature variant (designed binder, Secreted His8-tagged form) AIEVKDVTDTTALITWSDDFEEYVVCELTYGIKDVPGDRTTIDLWWHSAWYSIGNLKPDTEYEVSLICRRGDMSSNPAKETFTTGGGTLGHHHHHHHH |  |
| binds | Clone 341 - Affinity Mature variant (designed binder) AIEVKDVTDTTALITWSDDFADYVWCELTYGIKDVPGDRTTIDLWWHSAWYSIGNLKPDTEYEVSLICRRGDMSSNPAKETFTTGGGTLGHHHHHHHH |  |
| binds | Clone 340 - Affinity Mature variant (designed binder, Secreted His8-tagged form) AIEVKDVTDTTALITWSDDFDNYEWCELTYGIKDVPGDRTTIDLWYHMAWYSIGNLKPDTEYEVSLICRRGDMSSNPAKETFTTGGGTLGHHHHHHHH |  |
| binds | Clone 311K4E_7 - Clone Variant from second round of affinity maturation (designed binder) AIEVEDVTDTTALITWTNRSFYSNLHGCELTYGIKDVPGDRTTIDLNQPYVHYSIGNLKPDTEYEVSLICLTTDGTYSNPAKETFTTGGGTLGHHHHHHHH |  |
| binds | Clone 311K4E_4 - Clone Variant from second round of affinity maturation (designed binder) AIEVEDVTDTTALITWTNRSSYSNHLGCELAYGIKDVPGDRTTIDLNNIYVHYSIGNLKPDTEYEVSLICLTTDGTYSNPAKETFTTGGGTLGHHHHHHHH |  |
| binds | Clone 311K4E_20 - Clone Variant from second round of affinity maturation (designed binder) AIEVEDVTDTTALITWTNRSLYANFHGCELTYGIKDVPGDRTTIDLEQVYVHYSIGNLKPDTEYEVSLICLTTDGTYSNPAKETFTTGGGTLGHHHHHHHH |  |
| binds | Clone 311K4E_1 - Clone Variant from second round of affinity maturation (designed binder) AIEVEDVTDTTALITWINRSYYADLHGCELTYGIKDVPGDRTTIDLDQIYVHYSIGNLKPDTKYEVSLICLTTDGTYSNPAKETFTTGGGTLGHHHHHHHH |  |
| binds | Clone 311K4E_11 - Clone Variant from second round of affinity maturation (designed binder, Secreted His8-tagged form) AIEVEDVTDTTALITWTNRSSYANLPGCELTYGIKDVPGDRTTIDLNSPYVHYSIGNLKPDTEYEVSLICLTTDGTYSNPAKETFTTGGGTLGHHHHHHHH |  |
| binds | Clone 311K4E_3 - Clone Variant from second round of affinity maturation (designed binder, Secreted His8-tagged form) AIEVEDVTDTTALITWINRSSYHNFPHCELAYGIKDVPGDRTTIDLNSPYVHYSIGNLKPDTEYEVSLICLTTDGTYSNPAKETFTTGGGTLGHHHHHHHH |  |
| binds | Clone 311K4E_2 - Clone Variant from second round of affinity maturation (designed binder) AIEVEDVTDTTALITWTNRSSYSHLDGCELTYGIKDVPGDRTTIDLSAAIYVHYSIGNLKPDTEYEVSLICLTTDGTYSNPAKETFTTGGGTLGHHHHHHHH |  |
